According to PMC10216605, “Developing In Vitro Models to Define the Role of Direct Mitochondrial Toxicity in Frequently Reported Drug-Induced Rhabdomyolysis” (Biomedicines, 2023):
pIC50: −log10 of the molar value. Where two headings read alike, the source gives them in different places.

What was measured:
[1] = tested on: primary human skeletal muscle-derived cells (HSKMDC); assay: cells; type: cell-based; settings: 2 h exposure; for IC50-LDH gal/ IC50-ATP al: galactose media; for pIC50: Homo sapiens, Myotube
Description: HSKMDC myoblasts were collected by trypsinisation using trypsin-EDTA (0.05%) upon reaching 50% confluence and seeded into collagen-coated wells, at a density of 20,000 cells/100 μL/well (96 well plates) and 25,000 cells/100 μL/well (XF 96-well cell culture microplates). After 24 h, the cells were washed twice with 1× PBS (-/-), and growth media were replaced with differentiation medium containing DMEM low-glucose media (glucose 5 mM), L-glutamine (4 mM), sodium pyruvate (1 mM) supplemented with 2% (v/v) horse serum, and (10 nM) human insulin. The medium was refreshed every 48 h for 5 days.
On the day of the assay, the media on the differentiated myotubes were replaced with either serum-free high-glucose (DMEM, 25 mM of glucose, 4 mM of L-glutamine, 1 mM of sodium pyruvate, and 5 mM of HEPES) or serum-free galactose (DMEM, 10 mM of galactose, 6 mM of L-glutamine, 1 mM of sodium pyruvate, and 5 mM of HEPES) media (100 µL) for 2 h (37 °C, 5% CO2). The glucose and galactose media were removed and replaced with drug-dosing solutions in either glucose or galactose media as appropriate, before incubation (2 h, 37 °C, 5% CO2). […] Vehicle control was included in each experiment.
Cytotoxicity was detected using a lactate dehydrogenase (LDH) assay kit. Briefly, according to the manufacturers’ instructions, 25 µL of the supernatant and 10 µL of cell lysate were incubated with 50 µL of LDH reagent for 30 min in the dark. Samples were read at 490 nm using a plate reader.

[2] = FAERS analysis of reported rhabdomyolysis cases per suspect drug; settings: rhabdomyolysis with suspected drug vs all other drugs in FAERS

With `CC(C)OC(=O)C(C)(C)Oc1ccc(C(=O)c2ccc(Cl)cc2)cc1` [Fenofibrate] the “IC50-LDH gal/ IC50-ATP al” value [1] was greater than 30.9, the “IC50-LDH gal/ IC50-ATP al” value ([1]; listed as fenofibrate) was no less than 2 and the pIC50 ([1]; galactose serum-free media, read-out: LDH IC50 Galactose) was less than 3.52. The pIC50 ([1]; glucose serum-free media, read-out: LDH IC50 Glucose) was less than 3.52 and the “ROR (reported odds ratio)” value [2] was 3.8.
